No constants are given. Whether binding was seen depends on the method and setting. Binding seen in cells or lysates may run through a third protein. A yes stands for co-enrichment or nearness to the bait. Other partners may have been found.
Target: CD47 (human (endogenous in HK-2)) (UniProt Q08722)
Assay: affinity purification with mass spectrometry; anti-CD47 on Protein G Sepharose beads, lysate of HK-2 cells under OX-LDL stimulation, 4°C 12 h; precipitated proteins cut from SDS-PAGE gel, LC-MS/MS

Amino acid sequences for entries named in this document (tags omitted). Residues count along the entry.
UniProt Q08722, residues 19-323: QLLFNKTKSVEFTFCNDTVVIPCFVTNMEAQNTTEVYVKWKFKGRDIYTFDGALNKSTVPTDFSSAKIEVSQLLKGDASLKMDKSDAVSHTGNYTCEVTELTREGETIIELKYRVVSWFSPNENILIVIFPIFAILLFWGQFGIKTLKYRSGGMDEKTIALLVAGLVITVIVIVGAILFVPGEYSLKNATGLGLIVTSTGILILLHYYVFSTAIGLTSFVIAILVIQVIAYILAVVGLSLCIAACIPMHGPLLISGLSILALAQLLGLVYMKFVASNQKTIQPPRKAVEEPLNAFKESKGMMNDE
UniProt P07996, residues 19-1170: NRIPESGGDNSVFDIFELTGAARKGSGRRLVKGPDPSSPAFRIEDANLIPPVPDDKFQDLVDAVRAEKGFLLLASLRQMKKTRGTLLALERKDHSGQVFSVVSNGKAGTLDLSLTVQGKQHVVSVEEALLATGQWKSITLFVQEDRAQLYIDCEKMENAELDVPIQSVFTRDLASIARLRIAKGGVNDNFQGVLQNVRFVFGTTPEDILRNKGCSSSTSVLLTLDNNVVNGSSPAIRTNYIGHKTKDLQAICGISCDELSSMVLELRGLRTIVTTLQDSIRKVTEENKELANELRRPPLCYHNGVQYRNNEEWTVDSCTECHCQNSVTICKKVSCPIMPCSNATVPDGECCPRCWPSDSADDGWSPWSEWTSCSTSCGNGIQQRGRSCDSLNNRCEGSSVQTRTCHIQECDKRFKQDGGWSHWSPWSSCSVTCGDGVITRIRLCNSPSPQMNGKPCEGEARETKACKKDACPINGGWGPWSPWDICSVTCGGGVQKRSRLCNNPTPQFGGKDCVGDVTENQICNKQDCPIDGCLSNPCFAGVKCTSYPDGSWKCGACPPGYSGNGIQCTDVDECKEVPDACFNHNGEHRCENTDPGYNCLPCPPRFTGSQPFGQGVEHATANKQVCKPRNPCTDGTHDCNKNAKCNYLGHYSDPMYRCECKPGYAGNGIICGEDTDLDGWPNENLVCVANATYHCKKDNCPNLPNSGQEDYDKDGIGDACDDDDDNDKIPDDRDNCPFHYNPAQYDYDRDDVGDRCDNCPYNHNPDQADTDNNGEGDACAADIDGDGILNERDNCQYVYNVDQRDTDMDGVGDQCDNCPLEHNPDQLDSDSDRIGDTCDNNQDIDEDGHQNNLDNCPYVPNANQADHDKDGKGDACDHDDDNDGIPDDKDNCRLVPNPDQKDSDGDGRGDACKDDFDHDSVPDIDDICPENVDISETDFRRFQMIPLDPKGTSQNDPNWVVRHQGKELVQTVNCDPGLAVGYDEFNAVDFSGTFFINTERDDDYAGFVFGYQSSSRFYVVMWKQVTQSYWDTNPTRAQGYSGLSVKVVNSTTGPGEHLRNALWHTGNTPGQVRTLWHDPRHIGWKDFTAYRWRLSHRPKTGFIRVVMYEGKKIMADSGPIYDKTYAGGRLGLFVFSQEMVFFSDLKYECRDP

binding	Molecule
binds	thrombospondin-1 (from UniProt P07996 19-1170) (ligand)
binds	γ-catenin (protein, UniProt P14923 1-745) MEVMNLMEQPIKVTEWQQTYTYDSGIHSGANTCVPSVSSKGIMEEDEACGRQYTLKKTTTYTQGVPPSQGDLEYQMSTTARAKRVREAMCPGVSGEDSSLLLATQVEGQATNLQRLAEPSQLLKSAIVHLINYQDDAELATRALPELTKLLNDEDPVVVTKAAMIVNQLSKKEASRRALMGSPQLVAAVVRTMQNTSDLDTARCTTSILHNLSHHREGLLAIFKSGGIPALVRMLSSPVESVLFYAITTLHNLLLYQEGAKMAVRLADGLQKMVPLLNKNNPKFLAITTDCLQLLAYGNQESKLIILANGGPQALVQIMRNYSYEKLLWTTSRVLKVLSVCPSNKPAIVEAGGMQALGKHLTSNSPRLVQNCLWTLRNLSDVATKQEGLESVLKILVNQLSVDDVNVLTCATGTLSNLTCNNSKNKTLVTQNSGVEALIHAILRAGDKDDITEPAVCALRHLTSRHPEAEMAQNSVRLNYGIPAIVKLLNQPNQWPLVKATIGLIRNLALCPANHAPLQEAAVIPRLVQLLVKAHQDAQRHVAAGTQQPYTDGVRMEEIVEGCTGALHILARDPMNRMEIFRLNTIPLFVQLLYSSVENIQRVAAGVLCELAQDKEAADAIDAEGASAPLMELLHSRNEGTATYAAAVLFRISEDKNPDYRKRVSVELTNSLFKHDPAAWEAAQSMIPINEPYGDDMDATYRPMYSSDVPLDPLEMHMDMDGDYPIDTYSDGLRPPYPTADHMLA

Source: article PMC7930485
